Laboratory results: PubChem BioAssay AID330 (DTP/NCI, 2004)
The list does not hold the whole screen: it is rich in T/C values a quarter to a half above the control, in often repeated tests (any T/C) and in doses without a T/C. Further doses and runs are listed elsewhere. T/C gives the treated animals as a percentage of the vehicle group. Some entries give survivors of the animals treated and no T/C: the source files T/C as zero there, which appears to mark a toxic dose or a test without result, not a measured value. Some survivor counts are full or nearly so, which does not show that the dose was tolerated: survival well below the control is almost never listed, so the zero probably covers shortened survival too. Counts of survivors are from the toxicity check (mostly the fifth day) where no day follows; animals may have died later. Schedule codes are those of the source, read here as Q, the interval in days (D) or hours (H), X, the number of doses. Some entries hold several experiments; the values are given in rising order. For survival time, the PubChem record calls one and a half times the control and up active, and a quarter to a half above the control has no call in these data; cut-offs in other NCI protocols can differ. Some T/C values carry the count of animals alive at the toxicity check (mostly the fifth day); without a count, all were alive then.

System: P388 leukemia ip, CD2F1 mice, survival T/C
Assay: NCI In Vivo Anticancer Drug Screen. Data for tumor model P388 Leukemia (intraperitoneal) in CD2F1 (CDF1) mice
Conditions: T/C endpoint: median survival time, higher T/C = longer survival
[1] = dose: 75.5 mg/kg/injection, schedule: Q01DX009 (ip), vehicle: saline with Tween-80

CC(C)CC1NC(=O)C2N=C(OC2C)C2CSSCC(NC(=O)c3csc1n3)C1=NC(C(=O)NC(CC(C)C)c3nc(cs3)C(=O)N2)C(C)O1 (centres undefined)
survivor count (dose: 1.6 mg/kg/injection, schedule: Q01DX005 (ip), vehicle: DMSO): 6 of 6 | survivor count (dose: 3.0 mg/kg/injection, schedule: Q01DX005 (ip), vehicle: DMSO): 0 of 5 | survivor count (dose: 6.0 mg/kg/injection, schedule: Q01DX005 (ip), vehicle: DMSO): 0 of 5

O=C1C2C3C=CC(C2C(=O)N1CO)C1C2C(=O)N(CO)C(=O)C2C31 (centres undefined)
T/C (dose: 25.0 mg/kg/injection, schedule: Q01DX009 (ip), vehicle: saline with Tween-80): 140 % of control | survivor count (dose: 100.0 mg/kg/injection, schedule: Q01DX009 (ip), vehicle: saline with Tween-80): 3 of 6 | survivor count (dose: 100.0 mg/kg/injection, schedule: Q01DX009 (ip), vehicle: water): 0 of 6 | survivor count (dose: 200.0 mg/kg/injection, schedule: Q01DX009 (ip), vehicle: saline with Tween-80): 0 of 6

OC1OCC(COc2ccc(Cl)cc2)OC1O (centres undefined)
T/C (dose: 120.0 mg/kg/injection, schedule: Q01DX005 (ip), vehicle: saline with Tween-80): 129 % of control | T/C (dose: 240.0 mg/kg/injection, schedule: Q01DX005 (ip), vehicle: saline with Tween-80): 126 % of control | survivor count (dose: 480.0 mg/kg/injection, schedule: Q01DX005 (ip), vehicle: saline with Tween-80): 2 of 6

COc1cc2c3c(cccc3c1)C(=O)N(CCN(C)C)C2=O
T/C (dose: 18.9 mg/kg/injection, schedule: Q01DX009 (ip), vehicle: saline with Tween-80): 100, 116, 124, 132 % of control | T/C (dose: 37.8 mg/kg/injection, schedule: Q01DX009 (ip), vehicle: saline with Tween-80): 111, 119 [5 of 6 alive], 132, 139 % of control | T/C [1]: 96 [5 of 6 alive], 119 [4 of 6 alive], 121 % of control | survivor count [1]: 6 of 6 | survivor count (dose: 151.0 mg/kg/injection, schedule: Q01DX009 (ip), vehicle: saline with Tween-80): 3 of 6 and 4 of 6

CC(=O)/C(=C\c1ccc([N+](=O)[O-])cc1)C(=O)CCN(C)C
T/C (dose: 120.0 mg/kg/injection, schedule: Q01DX005 (ip), vehicle: saline, evaluated on day 20): 133 % of control | T/C (dose: 120.0 mg/kg/injection, schedule: Q01DX005 (ip), vehicle: saline, evaluated on day 30): 136 % of control | survivor count (dose: 240.0 mg/kg/injection, schedule: Q01DX005 (ip), vehicle: saline): 0 of 6

COc1cc2c(c(OC)c1OC)-c1ccc(S(C)(=O)=O)c(=O)cc1[C@@H](NC(C)=O)CC2
T/C (dose: 6.25 mg/kg/injection, schedule: Q01DX009 (ip), vehicle: Klucel (hydroxypropylcellulose) (HPC)): 125 % of control | T/C (dose: 25.0 mg/kg/injection, schedule: Q01DX009 (ip), vehicle: Klucel (hydroxypropylcellulose) (HPC)): 139 % of control | survivor count (dose: 50.0 mg/kg/injection, schedule: Q01DX009 (ip), vehicle: Klucel (hydroxypropylcellulose) (HPC)): 5 of 6 and 6 of 6

C[C@]12CC[C@H]3[C@@H](CCC4=CC(=O)CC[C@@]43C)[C@@H]1CC[C@@H]2OC(=O)Cc1ccc(N(CCCl)CCCl)cc1
T/C (dose: 200.0 mg/kg/injection, schedule: Q04DX003 (ip), vehicle: saline with Tween-80): 125 % of control | T/C (dose: 600.0 mg/kg/injection, schedule: Q04DX003 (ip), vehicle: saline with Tween-80): 127 % of control

COc1ccc(C(=O)N2C(=O)CCC2=O)cc1
T/C (dose: 200.0 mg/kg/injection, schedule: Q01DX009 (ip), vehicle: Klucel (hydroxypropylcellulose) (HPC)): 126 % of control
